{"sequences": {"note": "Chains of the proteins cited; added tags and fusions are not shown. Lines headed by an entry give the natural chain unless they say otherwise; changes in a name come on top.", "UniProt O94782": "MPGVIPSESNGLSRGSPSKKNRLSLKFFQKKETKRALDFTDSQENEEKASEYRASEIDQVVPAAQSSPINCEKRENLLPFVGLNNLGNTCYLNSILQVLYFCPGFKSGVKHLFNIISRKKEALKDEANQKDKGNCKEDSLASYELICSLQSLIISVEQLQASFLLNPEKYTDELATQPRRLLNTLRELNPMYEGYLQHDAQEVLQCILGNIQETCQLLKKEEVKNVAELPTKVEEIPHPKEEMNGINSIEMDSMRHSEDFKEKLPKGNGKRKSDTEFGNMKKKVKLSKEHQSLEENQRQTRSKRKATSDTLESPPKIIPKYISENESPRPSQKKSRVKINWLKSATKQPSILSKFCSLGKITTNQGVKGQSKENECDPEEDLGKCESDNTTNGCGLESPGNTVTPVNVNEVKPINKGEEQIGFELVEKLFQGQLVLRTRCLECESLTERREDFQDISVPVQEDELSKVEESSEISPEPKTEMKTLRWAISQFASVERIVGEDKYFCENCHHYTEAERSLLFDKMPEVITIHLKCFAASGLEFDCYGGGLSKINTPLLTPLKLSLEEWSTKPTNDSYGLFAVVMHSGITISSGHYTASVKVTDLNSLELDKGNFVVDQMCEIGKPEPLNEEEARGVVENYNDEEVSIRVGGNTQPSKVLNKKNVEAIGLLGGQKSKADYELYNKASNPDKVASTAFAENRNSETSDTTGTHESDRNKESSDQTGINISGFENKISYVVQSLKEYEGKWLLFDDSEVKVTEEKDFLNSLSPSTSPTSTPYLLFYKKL"}, "source": "PubChem BioAssay AID743255", "about": "(National Center for Advancing Translational Sciences (NCATS), 2014)", "note": "About 910 (0.23%) of roughly 390,000 compounds were called active. The shares of active, inactive and inconclusive entries below differ from those in the screen. Calls follow the shape of the dose curve; as a rule, active = well fitted inhibition curve with a large enough effect; inconclusive = small, poorly fitted or top-dose-only effect; inactive = no such curve, though single readings can be large or run the other way. Potencies of inconclusive entries are doubtful fits and often do not repeat. % is scaled to controls: 0 for no effect and ±100 for the full control effect; potency is read from the fitted curve at half-maximal effect.", "data": [{"target": "Ubiquitin carboxyl-terminal hydrolase 1 (Homo sapiens) (UniProt O94782)", "experiment": "Inhibitors of USP1/UAF1: Primary Screen; also: nearly all actives have a fitted effect of over 60% in size", "settings": "recombinant USP1/UAF1, Ub-Rhodamine cleavage fluorescence; activity change, negative = inhibition: at 57.1 µM (top of the series)", "summary_of_the_method": "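1 nM enzyme complex + cpd, 15 min RT; start with Ub-Rho 150nM final; kinetic fluorescence ex 480/em 540, 6 reads q60 s. Buffer 50mM HEPES pH 7.8, 0.5mM EDTA, 0.1 mg/ml BSA, 1mM TCEP, 0.01% Tween-20.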", "values": [{"smiles": "COc1ccc(N2C(=O)C3C(C2=O)C(C(=O)c2ccc(Cl)cc2)N2CCCC32)cc1", "note": "(stereo not given)", "Potency": "inconclusive: 5.62 µM [inhibitor, full curve, poor fit]"}, {"smiles": "O=C(COC(=O)C12CC3CC(CC(C3)C1)C2)Nc1ccc(OC(F)F)cc1", "Potency": "inconclusive: 39.8 µM [inhibitor, partial curve]"}, {"smiles": "Cc1ccc(CN2CCSc3ccc(C(=O)Nc4ccc(Cl)cc4)cc32)cc1", "Potency": "inconclusive: 0.1 µM [inhibitor, full curve, poor fit]"}, {"smiles": "COc1cc(C=NNc2ccc(S(=O)(=O)Nc3ccccc3C(=O)O)cc2[N+](=O)[O-])ccc1O", "Potency": "inconclusive: 39.8 µM [inhibitor, partial curve, poor fit]"}, {"smiles": "CCn1cc(C(=O)N2CCN(c3cc(Cl)ccc3C)CC2)c2cc(OC)c(OC)cc2c1=O", "Potency": "inconclusive: 5.62 µM [inhibitor, partial curve]"}, {"smiles": "O=C(CCC(=O)OCc1cccc([N+](=O)[O-])c1)Nc1ccccc1Cl", "Potency": "inconclusive: 7.94 µM [inhibitor, single point]"}, {"smiles": "CC1CN(C(=O)CSc2nnc(-c3ccc(Cl)cc3)n2C)CC(C)O1", "note": "(stereo not given)", "Potency": "inconclusive: 0.282 µM [inhibitor, full curve, poor fit]"}, {"smiles": "COc1cccc(CNC(=O)c2nnn(CC(=O)Nc3cc(Cl)ccc3C)c2N)c1", "Potency": "inconclusive: 10 µM [inhibitor, partial curve, poor fit]"}, {"smiles": "CC(C)CN(C(=O)CSc1nnc(-c2cccs2)n1C1CC1)C1CCS(=O)(=O)C1", "note": "(stereo not given)", "Potency": "inconclusive: 0.251 µM [inhibitor, full curve, poor fit]"}, {"smiles": "O=C(Nc1cccc(C(F)(F)F)c1)C1CCN(c2nnc(-n3cccc3)s2)CC1", "Potency": "inconclusive: 70.8 µM [inhibitor, partial curve, poor fit]"}, {"smiles": "COc1cccc(OCC(=O)NNC(=S)Nc2ccc(Cl)cc2Cl)c1", "Potency": "inconclusive: 0.355 µM [inhibitor, full curve, poor fit]"}, {"smiles": "CCCCN1CC(COCc2ccccc2)OCCS1(=O)=O", "note": "(stereo not given)", "Potency": "inconclusive: 50.1 µM [inhibitor, partial curve, poor fit]"}, {"smiles": "COc1ccccc1C(=O)CN1C(=O)NC2(CCCCCC2)C1=O", "Potency": "inconclusive: 12.6 µM [inhibitor, partial curve]"}, {"smiles": "Cc1ccc(NC(=O)C2CCCN(c3ncnc4c3nc3n4CCCCC3)C2)cc1F", "note": "(stereo not given)", "Potency": "inactive"}, {"smiles": "Cc1ccccc1CN1CCC(CNc2ncnc3onc(-c4ccc(Cl)cc4)c23)CC1", "Potency": "inconclusive: 0.355 µM [inhibitor, full curve, poor fit]"}, {"smiles": "COc1cc(-c2cc(C(=O)Nc3ccc(C)c(S(=O)(=O)N4CCOCC4)c3)c3ccccc3n2)cc(OC)c1OC", "Potency": "inconclusive: 0.398 µM [inhibitor, partial curve, poor fit]"}, {"smiles": "Cc1ccc2nc(/C(C#N)=C/c3cccc(Br)c3)[nH]c2c1", "Potency": "inactive"}, {"smiles": "Cc1ccccc1N1C(=O)CC(N2CCC(C(N)=O)CC2)C1=O", "note": "(stereo not given)", "Potency": "inconclusive: 35.5 µM [inhibitor, single point]"}, {"smiles": "CC1CCCCN1C(=O)CSc1nc2ccccc2nc1Cc1ccccc1", "note": "(stereo not given)", "Potency": "inactive"}, {"smiles": "COc1cccc(C(=O)Nc2sc3c(c2C(=O)O)CCCC3)c1", "Potency": "inactive"}, {"smiles": "N/C(=N\\NC(=O)Nc1ccccc1)c1ccccn1", "Potency": "inconclusive: 7.08 µM [inhibitor, partial curve]"}, {"smiles": "CCOCCCNC(=O)CNC(=S)N(Cc1ccc(C)cc1)Cc1ccco1", "Potency": "inconclusive: 7.94 µM [inhibitor, partial curve, poor fit]"}, {"smiles": "COc1cccc(CNC(=O)CN(C)S(=O)(=O)c2cccc3cccnc23)c1", "Potency": "inactive"}, {"smiles": "COc1ccc(C(=O)CCC(=O)N2CCN(c3cccc(Cl)c3)CC2)cc1", "Potency": "inactive"}, {"smiles": "CCC(NC(=O)NC1CCCCC1)c1ccccc1", "note": "(stereo not given)", "Potency": "inactive"}, {"smiles": "CN(c1nc(-c2ccc(Br)cc2)cs1)C1CCS(=O)(=O)C1", "note": "(stereo not given)", "Potency": "inconclusive: 10 µM [inhibitor, full curve, poor fit]"}, {"smiles": "O=C(CNC(=O)c1ccc2c(c1)OCO2)N/N=C(Br)/C=C/c1ccccc1", "Potency": "inactive"}, {"smiles": "Cc1ccc([N+](=O)[O-])cc1NCC(=O)NN", "Potency": "inconclusive: 0.708 µM [inhibitor, full curve]"}, {"smiles": "CCN(CC)c1ccc(NC(=O)CN2CCN(S(=O)(=O)c3ccc(C(C)C)cc3)CC2)cc1", "Potency": "inconclusive: 44.7 µM [inhibitor, partial curve, poor fit]"}, {"smiles": "O=C(c1ccc(Br)o1)N(Cc1ccccc1)Cc1ccccc1", "Potency": "inconclusive: 50.1 µM [inhibitor, partial curve, poor fit]"}, {"smiles": "CC1CN(c2sc(S(C)(=O)=O)nc2S(=O)(=O)c2ccc(Cl)cc2)CC(C)O1", "note": "(stereo not given)", "Potency": "inactive"}, {"smiles": "Cc1cccc(C)c1N1CCN(S(=O)(=O)N2CCCCC2)CC1", "Potency": "inconclusive: 1.26 µM [inhibitor, full curve, poor fit]"}, {"smiles": "COc1cc(C(C2C(=O)CC(C)(C)CC2=O)C2C(=O)CC(C)(C)CC2=O)ccc1OC(C)=O", "Potency": "inconclusive: 39.8 µM [inhibitor, partial curve, poor fit]"}, {"smiles": "CC1CCCN(CC(=O)Nc2cc(Cl)ccc2Oc2ccccc2)C1", "note": "(stereo not given)", "Potency": "inconclusive: 35.5 µM [inhibitor, single point]"}, {"smiles": "Cc1[nH]c(=O)[nH]c(=O)c1S(=O)(=O)Nc1cccc(Cl)c1C", "Potency": "inconclusive: 5.01 µM [inhibitor, full curve]"}, {"smiles": "COc1ccc(-c2cc(C)no2)cc1S(=O)(=O)NCC1CCN(Cc2cc(C)ccc2C)CC1", "Potency": "inactive"}, {"smiles": "COc1ccc(N=Cc2nc(-c3ccccc3)oc2OC(C)=O)cc1", "Potency": "inactive"}, {"smiles": "COc1ccc(COc2cc(-c3cccc(OC)c3)nc3ccc(N)cc23)cc1", "Potency": "inconclusive: 44.7 µM [inhibitor, partial curve, poor fit]"}, {"smiles": "Cc1nc2ccc(NC(=O)c3cc([N+](=O)[O-])cc([N+](=O)[O-])c3Cl)cc2s1", "Potency": "inactive"}, {"smiles": "Cc1ccc(NC(=O)c2nc(S(C)(=O)=O)ncc2N(Cc2cccc(F)c2)Cc2ccco2)cc1C", "Potency": "inconclusive: 31.6 µM [inhibitor, single point]"}, {"smiles": "CCc1ccc(NC(=O)CC2C(=O)N(c3cccc(C)c3)C(=O)N2Cc2cccc(OC)c2)cc1", "note": "(stereo not given)", "Potency": "inactive"}, {"smiles": "COc1ccc2cc3cc(C(=O)NCc4cccs4)oc3nc2c1", "Potency": "inactive"}, {"smiles": "Cc1ccc(CCNC(=O)c2cc3c(s2)-c2ccccc2OC3)cc1", "Potency": "inconclusive: 44.7 µM [inhibitor, partial curve]"}, {"smiles": "COC(=O)C(C)N(c1ccc(OC)cc1)S(C)(=O)=O", "note": "(stereo not given)", "Potency": "inconclusive: 0.282 µM [inhibitor, full curve, poor fit]"}, {"smiles": "Brc1ccccc1/C=N/Nc1ccccn1", "Potency": "inactive"}, {"smiles": "O=C(Nc1nc2c(s1)CCc1ccccc1-2)c1ccco1", "Potency": "inconclusive: 39.8 µM [inhibitor, partial curve]"}, {"smiles": "Cc1cc(C)cc(NC(=O)Cn2nnc(C(=O)NCCc3ccccc3)c2N)c1", "Potency": "inconclusive: 35.5 µM [inhibitor, partial curve, poor fit]"}, {"smiles": "Cn1c(N)nc2nc(CCc3ccccc3)c(=O)[nH]c2c1=O", "Potency": "inconclusive: 6.31 µM [inhibitor, single point]"}, {"smiles": "Cc1ccc2c(CC(=O)N3CCN(c4cccc(Cl)c4)CC3)coc2c1", "Potency": "inconclusive: 4.47 µM [inhibitor, partial curve]"}, {"smiles": "CCN(CC)c1ccc(NC(=O)COc2ccccc2C)cc1S(=O)(=O)Nc1ccccc1OC", "Potency": "inactive"}, {"smiles": "O=C(NCc1ccccc1C(F)(F)F)c1cccc2c1C(=O)c1ccc(N3CCCCC3)cc1S2(=O)=O", "Potency": "inconclusive: 6.31 µM [inhibitor, single point]"}, {"smiles": "O=c1[nH]cnc2sc3c(c12)CCN(Cc1ccccc1)C3", "Potency": "inconclusive: 50.1 µM [inhibitor, partial curve, poor fit]"}, {"smiles": "Nc1ccc(C(=O)N2CCCC2)cc1CS(=O)(=O)c1ccc(Cl)cc1", "Potency": "inactive"}, {"smiles": "O=C(NCc1ccc(Cl)cc1)C(=O)NCC1OCCN1C(=O)c1ccc(Cl)cc1", "note": "(stereo not given)", "Potency": "inconclusive: 39.8 µM [inhibitor, partial curve, poor fit]"}, {"smiles": "COCC(C)OC(=O)/C(C#N)=C\\c1coc2ccc(C)cc2c1=O", "note": "(stereo not given)", "activity change, negative = inhibition": "inconclusive: -28.7% [inhibitor]"}, {"smiles": "COc1ccc([C@H]2CC(=O)C=C(c3cc(C=O)ccc3OC)C2)cc1OC", "Potency": "inconclusive: 1 µM [inhibitor, full curve, poor fit]"}, {"smiles": "COc1cc(OC)c(NC(=O)Nc2nnc(N(C)C3CCCCC3)s2)cc1Cl", "Potency": "inconclusive: 50.1 µM [inhibitor, partial curve, poor fit]"}, {"smiles": "CC(C)=C1C(=O)NN(c2ccc(F)c(Cl)c2)C1=O", "Potency": "inactive"}, {"smiles": "COC(=O)C1=C(CSc2nc3c(cc2C#N)CN(C)CC3)OC(N)=C(C#N)C1c1ccc(F)cc1", "note": "(stereo not given)", "Potency": "inconclusive: 17.8 µM [inhibitor, partial curve, poor fit]"}, {"smiles": "CCCCC(CCC(=O)Nc1cc([N+](=O)[O-])ccc1O)C(=O)O", "note": "(stereo not given)", "Potency": "inconclusive: 35.5 µM [inhibitor, partial curve, poor fit]"}, {"smiles": "O=C(Cn1sc2ccccc2c1=O)Nc1ccc(Cl)cc1", "Potency": "inconclusive: 0.251 µM [inhibitor, full curve, poor fit]"}, {"smiles": "CC(C)OC(=O)c1c(-c2ccc(C(C)C)cc2)csc1NC(=O)C1CCCO1", "note": "(stereo not given)", "Potency": "inconclusive: 56.2 µM [inhibitor, single point]"}, {"smiles": "CCCN(CCC)CCCNC(=O)c1cc2c(-c3ccc(Cl)cc3)nn(C)c2s1", "Potency": "inactive"}, {"smiles": "O=C(Nc1ccc2nc(-c3cccnc3)[nH]c2c1)c1ccco1", "Potency": "inconclusive: 6.31 µM [inhibitor, partial curve]"}, {"smiles": "S=C(Nc1ccc(Cl)cc1)NC1CCN(Cc2ccccc2)CC1", "Potency": "inactive"}]}]}
